22 targets from the supplement of paper PMC11006884 can be followed below.

By UniProt entry, the sequences of proteins in these tests, tags left out. Where a name states a change or a piece, a line headed by the entry shows the natural chain unless it says otherwise.
UniProt O60942: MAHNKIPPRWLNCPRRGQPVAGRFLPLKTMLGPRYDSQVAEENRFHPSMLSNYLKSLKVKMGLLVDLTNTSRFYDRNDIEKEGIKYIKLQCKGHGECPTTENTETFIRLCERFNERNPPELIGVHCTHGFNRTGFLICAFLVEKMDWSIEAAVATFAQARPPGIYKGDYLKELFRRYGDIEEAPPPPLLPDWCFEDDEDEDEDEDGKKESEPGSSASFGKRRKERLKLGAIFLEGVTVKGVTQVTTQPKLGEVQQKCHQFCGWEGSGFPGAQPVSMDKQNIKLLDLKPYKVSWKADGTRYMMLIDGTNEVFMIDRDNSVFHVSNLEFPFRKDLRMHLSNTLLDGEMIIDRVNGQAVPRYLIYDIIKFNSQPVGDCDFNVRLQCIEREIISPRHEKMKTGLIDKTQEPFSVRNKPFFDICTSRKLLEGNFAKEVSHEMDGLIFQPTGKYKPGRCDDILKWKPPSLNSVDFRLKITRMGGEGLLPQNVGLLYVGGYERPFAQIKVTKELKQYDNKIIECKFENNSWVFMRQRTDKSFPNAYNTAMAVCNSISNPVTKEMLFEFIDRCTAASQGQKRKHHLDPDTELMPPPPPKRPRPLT
UniProt O60343: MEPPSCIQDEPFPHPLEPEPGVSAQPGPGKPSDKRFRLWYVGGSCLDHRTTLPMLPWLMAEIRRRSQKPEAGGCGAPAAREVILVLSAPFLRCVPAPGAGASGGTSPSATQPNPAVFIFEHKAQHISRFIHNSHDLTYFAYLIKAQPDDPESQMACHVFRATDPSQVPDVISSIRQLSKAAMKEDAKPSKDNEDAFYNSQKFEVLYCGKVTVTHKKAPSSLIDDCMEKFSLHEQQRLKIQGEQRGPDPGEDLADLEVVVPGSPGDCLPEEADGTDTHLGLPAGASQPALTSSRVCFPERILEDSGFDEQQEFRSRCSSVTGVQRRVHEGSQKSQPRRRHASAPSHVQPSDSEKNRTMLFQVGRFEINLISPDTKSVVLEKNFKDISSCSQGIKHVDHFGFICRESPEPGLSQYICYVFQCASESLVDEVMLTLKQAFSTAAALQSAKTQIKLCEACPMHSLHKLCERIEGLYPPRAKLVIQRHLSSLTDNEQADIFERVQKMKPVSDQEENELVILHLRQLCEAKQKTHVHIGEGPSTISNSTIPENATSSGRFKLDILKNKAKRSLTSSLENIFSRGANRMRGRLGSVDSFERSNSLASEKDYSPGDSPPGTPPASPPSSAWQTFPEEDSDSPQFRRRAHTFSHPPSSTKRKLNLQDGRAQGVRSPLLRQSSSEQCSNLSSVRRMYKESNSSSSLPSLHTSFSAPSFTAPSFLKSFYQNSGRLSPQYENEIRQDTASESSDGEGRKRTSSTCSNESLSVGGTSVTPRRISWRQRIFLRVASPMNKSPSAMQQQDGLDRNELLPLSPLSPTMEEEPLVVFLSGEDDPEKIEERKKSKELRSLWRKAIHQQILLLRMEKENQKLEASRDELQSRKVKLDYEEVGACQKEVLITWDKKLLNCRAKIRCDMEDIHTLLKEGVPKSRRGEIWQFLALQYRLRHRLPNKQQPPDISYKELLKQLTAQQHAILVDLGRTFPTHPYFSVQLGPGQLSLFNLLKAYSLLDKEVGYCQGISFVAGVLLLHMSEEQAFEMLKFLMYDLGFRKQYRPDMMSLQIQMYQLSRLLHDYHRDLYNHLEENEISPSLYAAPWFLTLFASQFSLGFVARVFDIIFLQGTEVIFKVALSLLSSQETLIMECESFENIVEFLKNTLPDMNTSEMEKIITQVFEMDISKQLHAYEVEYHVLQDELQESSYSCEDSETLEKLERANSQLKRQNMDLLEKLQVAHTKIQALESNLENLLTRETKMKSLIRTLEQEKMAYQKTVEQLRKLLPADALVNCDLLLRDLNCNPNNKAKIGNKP
UniProt O75223: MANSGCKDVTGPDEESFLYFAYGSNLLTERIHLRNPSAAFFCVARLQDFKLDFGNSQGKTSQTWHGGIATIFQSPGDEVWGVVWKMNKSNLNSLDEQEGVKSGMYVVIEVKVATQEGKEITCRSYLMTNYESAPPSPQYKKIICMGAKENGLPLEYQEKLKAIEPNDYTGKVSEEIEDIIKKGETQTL
UniProt O43719: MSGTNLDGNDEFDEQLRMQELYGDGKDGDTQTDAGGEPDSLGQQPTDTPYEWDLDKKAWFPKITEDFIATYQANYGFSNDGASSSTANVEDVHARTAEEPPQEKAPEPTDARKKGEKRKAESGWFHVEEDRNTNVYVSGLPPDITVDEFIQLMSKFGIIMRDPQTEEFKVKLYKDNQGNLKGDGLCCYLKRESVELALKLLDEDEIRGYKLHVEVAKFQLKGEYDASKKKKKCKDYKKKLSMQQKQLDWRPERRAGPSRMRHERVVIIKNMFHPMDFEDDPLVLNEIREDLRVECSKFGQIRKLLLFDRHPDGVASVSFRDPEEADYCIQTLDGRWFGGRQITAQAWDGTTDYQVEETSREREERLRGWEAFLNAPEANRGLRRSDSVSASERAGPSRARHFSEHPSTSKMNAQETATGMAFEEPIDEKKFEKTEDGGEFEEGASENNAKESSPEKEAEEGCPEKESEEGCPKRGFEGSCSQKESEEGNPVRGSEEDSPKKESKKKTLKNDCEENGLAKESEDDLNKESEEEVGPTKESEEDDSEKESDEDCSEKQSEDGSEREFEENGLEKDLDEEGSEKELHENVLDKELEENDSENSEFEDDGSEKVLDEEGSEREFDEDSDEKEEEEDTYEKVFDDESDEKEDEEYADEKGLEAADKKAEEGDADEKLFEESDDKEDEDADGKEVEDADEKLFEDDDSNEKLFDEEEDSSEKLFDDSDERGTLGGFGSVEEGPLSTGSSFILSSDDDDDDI
UniProt O75153: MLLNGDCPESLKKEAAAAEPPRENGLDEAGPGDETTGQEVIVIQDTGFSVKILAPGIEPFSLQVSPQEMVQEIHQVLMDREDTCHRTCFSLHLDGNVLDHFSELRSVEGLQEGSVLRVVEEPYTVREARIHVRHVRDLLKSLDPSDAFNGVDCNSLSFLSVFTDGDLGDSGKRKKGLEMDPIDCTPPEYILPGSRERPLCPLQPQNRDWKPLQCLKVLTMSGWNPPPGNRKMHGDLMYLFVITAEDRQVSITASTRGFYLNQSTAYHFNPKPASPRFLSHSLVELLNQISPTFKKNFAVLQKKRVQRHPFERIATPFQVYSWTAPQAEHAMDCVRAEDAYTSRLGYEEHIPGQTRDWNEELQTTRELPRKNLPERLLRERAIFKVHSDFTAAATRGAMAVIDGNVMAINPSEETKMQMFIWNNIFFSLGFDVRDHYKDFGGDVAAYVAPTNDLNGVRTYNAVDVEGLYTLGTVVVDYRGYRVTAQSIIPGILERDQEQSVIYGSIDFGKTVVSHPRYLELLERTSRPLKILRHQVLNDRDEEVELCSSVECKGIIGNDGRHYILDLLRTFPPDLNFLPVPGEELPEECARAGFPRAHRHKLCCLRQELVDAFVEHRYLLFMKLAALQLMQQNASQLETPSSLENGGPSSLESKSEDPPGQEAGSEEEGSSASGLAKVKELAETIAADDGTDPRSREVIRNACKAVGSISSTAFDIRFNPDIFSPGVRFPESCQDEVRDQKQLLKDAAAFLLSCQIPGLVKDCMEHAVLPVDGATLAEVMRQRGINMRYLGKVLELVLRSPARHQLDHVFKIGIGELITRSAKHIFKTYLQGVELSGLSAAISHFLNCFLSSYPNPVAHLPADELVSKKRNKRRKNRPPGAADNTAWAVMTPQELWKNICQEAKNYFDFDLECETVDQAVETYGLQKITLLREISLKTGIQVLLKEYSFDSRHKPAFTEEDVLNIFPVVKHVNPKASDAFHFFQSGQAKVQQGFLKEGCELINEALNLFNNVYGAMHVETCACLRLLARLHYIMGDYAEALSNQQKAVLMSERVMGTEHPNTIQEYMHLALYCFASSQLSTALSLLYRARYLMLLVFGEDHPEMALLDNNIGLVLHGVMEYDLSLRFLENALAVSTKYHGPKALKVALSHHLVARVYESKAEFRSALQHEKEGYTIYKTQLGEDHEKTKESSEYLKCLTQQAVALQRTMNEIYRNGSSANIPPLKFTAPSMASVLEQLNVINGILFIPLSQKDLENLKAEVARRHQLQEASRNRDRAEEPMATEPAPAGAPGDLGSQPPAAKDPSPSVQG
UniProt O43823: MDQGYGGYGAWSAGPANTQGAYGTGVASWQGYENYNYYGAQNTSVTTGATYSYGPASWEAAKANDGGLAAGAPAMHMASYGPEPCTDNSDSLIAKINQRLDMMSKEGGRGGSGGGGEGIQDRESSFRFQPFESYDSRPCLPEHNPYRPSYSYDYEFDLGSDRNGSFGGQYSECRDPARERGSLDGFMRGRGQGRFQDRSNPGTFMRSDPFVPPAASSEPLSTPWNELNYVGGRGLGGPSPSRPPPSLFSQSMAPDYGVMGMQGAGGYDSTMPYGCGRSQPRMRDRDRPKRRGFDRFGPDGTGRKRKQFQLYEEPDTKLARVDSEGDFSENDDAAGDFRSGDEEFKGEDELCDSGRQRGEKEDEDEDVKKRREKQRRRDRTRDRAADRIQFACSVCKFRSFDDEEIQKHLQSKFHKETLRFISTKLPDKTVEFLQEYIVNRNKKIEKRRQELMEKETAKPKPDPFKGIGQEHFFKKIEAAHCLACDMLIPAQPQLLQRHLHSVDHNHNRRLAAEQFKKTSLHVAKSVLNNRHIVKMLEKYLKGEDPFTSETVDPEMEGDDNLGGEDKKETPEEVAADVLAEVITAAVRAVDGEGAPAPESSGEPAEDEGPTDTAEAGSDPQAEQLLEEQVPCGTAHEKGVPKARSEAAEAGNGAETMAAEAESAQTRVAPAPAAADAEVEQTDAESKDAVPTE
UniProt O75348, whole entry, looked up: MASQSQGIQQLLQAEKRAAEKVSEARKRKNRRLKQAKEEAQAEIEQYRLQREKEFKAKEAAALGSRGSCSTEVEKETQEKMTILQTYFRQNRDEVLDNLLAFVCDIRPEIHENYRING
UniProt O75410: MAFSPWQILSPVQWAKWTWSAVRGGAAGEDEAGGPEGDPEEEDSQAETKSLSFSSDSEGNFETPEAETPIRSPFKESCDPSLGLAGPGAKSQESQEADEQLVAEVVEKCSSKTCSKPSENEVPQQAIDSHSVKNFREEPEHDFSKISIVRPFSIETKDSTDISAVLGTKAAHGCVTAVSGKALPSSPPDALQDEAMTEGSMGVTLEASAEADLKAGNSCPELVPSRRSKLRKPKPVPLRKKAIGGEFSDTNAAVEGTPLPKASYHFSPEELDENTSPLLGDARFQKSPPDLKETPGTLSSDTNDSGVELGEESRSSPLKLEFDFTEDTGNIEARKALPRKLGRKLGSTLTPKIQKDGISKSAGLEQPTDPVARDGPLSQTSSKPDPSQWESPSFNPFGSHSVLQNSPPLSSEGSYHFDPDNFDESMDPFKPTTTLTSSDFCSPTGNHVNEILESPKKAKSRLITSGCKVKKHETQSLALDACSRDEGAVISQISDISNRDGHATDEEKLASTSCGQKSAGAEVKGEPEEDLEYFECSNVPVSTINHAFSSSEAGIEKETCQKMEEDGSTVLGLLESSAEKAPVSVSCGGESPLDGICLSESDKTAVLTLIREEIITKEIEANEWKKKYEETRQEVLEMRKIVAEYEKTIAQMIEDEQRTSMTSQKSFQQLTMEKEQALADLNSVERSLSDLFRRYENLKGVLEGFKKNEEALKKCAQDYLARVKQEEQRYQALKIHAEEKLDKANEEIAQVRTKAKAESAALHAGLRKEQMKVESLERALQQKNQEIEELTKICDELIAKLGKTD
UniProt O76031, whole entry, looked up: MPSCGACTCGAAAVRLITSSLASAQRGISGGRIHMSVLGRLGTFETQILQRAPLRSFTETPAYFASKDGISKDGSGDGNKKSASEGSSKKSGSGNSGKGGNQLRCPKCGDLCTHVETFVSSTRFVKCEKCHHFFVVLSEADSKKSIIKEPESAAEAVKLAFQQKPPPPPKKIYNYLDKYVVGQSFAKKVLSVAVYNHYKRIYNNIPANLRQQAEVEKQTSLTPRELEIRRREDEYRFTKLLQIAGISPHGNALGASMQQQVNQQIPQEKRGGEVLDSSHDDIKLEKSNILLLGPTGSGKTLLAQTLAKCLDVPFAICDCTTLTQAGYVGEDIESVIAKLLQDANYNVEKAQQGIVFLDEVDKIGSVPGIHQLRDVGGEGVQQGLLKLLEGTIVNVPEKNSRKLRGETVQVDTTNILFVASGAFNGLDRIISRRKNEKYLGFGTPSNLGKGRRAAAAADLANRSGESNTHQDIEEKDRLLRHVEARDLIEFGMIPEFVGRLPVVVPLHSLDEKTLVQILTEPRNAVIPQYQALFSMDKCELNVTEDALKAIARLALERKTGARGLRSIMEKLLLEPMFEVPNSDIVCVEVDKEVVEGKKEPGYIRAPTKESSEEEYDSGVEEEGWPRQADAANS

This is a selection; strong and weak results do not stand in their true shares.

Compound in this assay: COC(=O)C#Cc1ccccc1 [methyl 3-phenylpropiolate]
Kind of assay: log2 ratio of iodoacetamide-alkyne labeling of the cysteine site, DMSO over compound (competition); higher = stronger covalent engagement of the cysteine by the compound, active = 1 or more. As to conditions: 500 µM; treatment time 1 h; system: HEK293T cell lysate. The gist of the method: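 Electrophile (500 µM) or vehicle was added to HEK293T lysate (2 mg/mL) for 1 h at ambient temperature before iodoacetamide alkyne labelling (1 h) and click coupling to sCIP-TMT reagents. After pooling, overnight trypsin digestion at 37 °C, streptavidin enrichment and acid elution, peptides were measured by Orbitrap Eclipse LC-MS/MS with FAIMS and quantified in FragPipe. Each cysteine's log2 competition ratio compares mean control-channel with mean compound-channel reporter intensity, control over compound. Data came from duplicate channels across three replicates, excluding cysteines quantified in only one replicate.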
As to PAPSS1 C360 (UniProt O43252), the “log2 ratio of iodoacetamide-alkyne labeling” value (shortened to “log2 ratio”) is inactive: 0.982.

As to RNGTT C97 (UniProt O60942), the “log2 ratio” value is inactive: 0.0788. Under NUP155 C704 (UniProt O75694) stands inactive: 0.168.

Consider EIF5B C720 (UniProt O60841), for which the “log2 ratio” value is inactive: 0.266.

Take EIF5B C853 (UniProt O60841): the “log2 ratio” value was active: 1. Under TBC1D4 C1277 (UniProt O60343) stands inactive: 0.374.

As for MCM3AP C274 (UniProt O60318), the “log2 ratio” value is inactive: 0.243. As for CSDE1 C680 (UniProt O75534), the figure is inactive: 0.119. Under GGCT C6 (UniProt O75223) stands inactive: 0.209; under HTATSF1 C295 (UniProt O43719), inactive: -0.0476; under RPP40 C49 (UniProt O75818), inactive: 0.0974. Regarding UniProt O75153_C732, the “log2 ratio” value is inactive: 0.222. Consider AKAP8 C139 (UniProt O43823), for which the “log2 ratio” value was inactive: 0.676. On to AKAP8 C275 (UniProt O43823), for which the “log2 ratio” value was active: 1.06. As for UniProt O43432_C1411, the figure is inactive: 0.0789. Take CPD C582 (UniProt O75976): the “log2 ratio” value was inactive: 0.145. Under TBC1D4 C6 (UniProt O60343) stands inactive: 0.373; under ATP6V1G1 C104 (UniProt O75348), inactive: 0.03. As for TBC1D4 C74 (UniProt O60343), the figure is inactive: 0.832. With UniProt O75153_C88, the “log2 ratio” value was inactive: 0.201. Under TACC1 C174 (UniProt O75410) stands inactive: 0.521; under CLPX C538 (UniProt O76031), inactive: 0.378.
